From the supplement of paper PMC5355238 come the findings set out here.

Each structure is given as a SMILES string. Structures can show the parent of a compound that is named as a salt. ± gives the standard deviation of the averaged measurements. The list shows a part of the results. Many values rest on one well or one pass, so single values are uncertain.

The test relates to Reh. Put plainly: S-phase gammaH2AX median, Z-score vs plate median (drug alone); higher = more S-phase DNA damage. The note with it: MK1775 concentration 0 nM; 10 µM; 4 h.
On to `O=C(O)CC[N+](=O)[O-]` [3-Nitropropionic acid], for which the “S-phase gammaH2AX median (Z-score)” value was -0.0686.

Regarding `Oc1ccc2c3c1O[C@H]1[C@@H](O)CC[C@@]4(O)[C@@H](C2)N(CC2CCC2)CC[C@]314` [Nalbuphine hydrochloride], the “S-phase gammaH2AX median (Z-score)” value was -0.0993.

Regarding `CC(N)C(O)c1ccc(O)c(O)c1` (single isomer, unassigned; (-)) [(-)-alpha-Methylnorepinephrine], the “S-phase gammaH2AX median (Z-score)” value was -0.0157.

Turning to `CC(C)[C@@]1(NC(=O)[C@@H]2C=C3c4cccc5[nH]cc(c45)C[C@H]3N(C)C2)O[C@@]2(O)[C@@H]3CCCN3C(=O)[C@H](Cc3ccccc3)N2C1=O` [Ergocristine], the “S-phase gammaH2AX median (Z-score)” value was determined as 0.161.

With `COc1ccc2c(c1)[C@@]13CCCC[C@H]1[C@@H](C2)NCC3` [3-Methoxy-morphanin hydrochloride], the “S-phase gammaH2AX median (Z-score)” value is -0.0639.

For `COc1cc2c(c(OC)c1OC)-c1ccc(OC)c(=O)cc1[C@@H](NC(C)=O)CC2` [Colchicine], the “S-phase gammaH2AX median (Z-score)” value is -0.0175.

As to `CC(C)C1CNC(C(=O)O)C1CC(=O)O` (stereo not given) [Dihydrokainic acid], the “S-phase gammaH2AX median (Z-score)” value was -0.00945.

As for `CC[C@@H](CO)NC(=O)[C@@H]1C=C2c3cccc4c3c(cn4C)C[C@H]2N(C)C1` [Methysergide maleate], the “S-phase gammaH2AX median (Z-score)” value was determined as 0.132.

Turning to `CCCN(CCC)[C@H]1CCc2c(F)ccc(O)c2C1` [S(-)-UH-301 hydrochloride], the “S-phase gammaH2AX median (Z-score)” value was -0.174.

Turning to `c1ccc2c(c1)OCC(C1=NCCN1)O2` (stereo not given) [Idazoxan hydrochloride], the “S-phase gammaH2AX median (Z-score)” value is 0.302.

In the case of `C[C@]12CC[C@@H](O)C[C@@H]1CC[C@@H]1[C@@H]2CC[C@]2(C)[C@@H](C(=O)CO)CC[C@@H]12` [3-alpha,21-Dihydroxy-5-alpha-pregnan-20-one], the “S-phase gammaH2AX median (Z-score)” value was -0.0851.

In the case of `C/C=C(/C)C(=O)O[C@H]1C(C)=C2[C@H]([C@@H]1OC(=O)CCCCCCC)[C@@](C)(OC(C)=O)C[C@H](OC(=O)CCC)[C@@]1(O)[C@H]2OC(=O)[C@@]1(C)O` [Thapsigargin], the “S-phase gammaH2AX median (Z-score)” value is -0.434.

`COC(=O)c1cc2c(cn1)[nH]c1ccccc12` [Methyl beta-carboline-3-carboxylate]: the “S-phase gammaH2AX median (Z-score)” value was -0.00945.

For `C[C@@H]1O[C@@H](O[C@H]2C[C@@H](O)[C@]3(CO)[C@H]4[C@H](O)C[C@]5(C)[C@@H]([C@@H]6COC(=O)C6)CC[C@]5(O)[C@@H]4CC[C@]3(O)C2)[C@H](O)[C@H](O)[C@H]1O` [Dihydroouabain], the “S-phase gammaH2AX median (Z-score)” value is -0.101.

Turning to `CCCN1CCO[C@@H]2c3cc(O)ccc3OC[C@H]21` [S(+)-PD 128,907 hydrochloride], the “S-phase gammaH2AX median (Z-score)” value is 0.0284.

Regarding `O=C(O)Cc1cnc[nH]1` [Imidazole-4-acetic acid hydrochloride], the “S-phase gammaH2AX median (Z-score)” value was determined as 0.107.

For `O=C(O)[C@@H]1CCN1` [L-azetidine-2-carboxylic acid], the “S-phase gammaH2AX median (Z-score)” value came to 0.0505.

Take `CC(=O)OCC1=C(C(=O)[O-])N2C(=O)[C@@H](NC(=O)CCC[C@@H](N)C(=O)[O-])[C@H]2SC1.[Zn+2]` [Cephalosporin C zinc salt]: the “S-phase gammaH2AX median (Z-score)” value was -0.0388.

Turning to `CN1C(=O)CCS(=O)(=O)C1c1ccc(Cl)cc1` (stereo not given) [Chlormezanone], the “S-phase gammaH2AX median (Z-score)” value is 0.0175.

As to `CCCn1c(C)c(C(=O)c2cccc3ccccc23)c2ccccc21`, the “S-phase gammaH2AX median (Z-score)” value is -0.183.

Turning to `O=P1(N(CCCl)CCCl)NCCCO1` (stereo not given) [Cyclophosphamide monohydrate], the “S-phase gammaH2AX median (Z-score)” value is -0.0363 ± 0.026.

As for `O=C1C=CC(=O)C=C1` [p-Benzoquinone], the “S-phase gammaH2AX median (Z-score)” value is -0.0621.

Take `COc1ccc2c(c1OC)C(=O)OC2C1c2cc3c(cc2CCN1C)OCO3` (single isomer, unassigned; (+)) [(+)-Hydrastine]: the “S-phase gammaH2AX median (Z-score)” value was -0.0882.

On to `C=C1C[C@@H]2[C@H](CC[C@]3(C)C(=O)CC[C@@H]23)[C@@]2(C)C=CC(=O)C=C12` [Exemestane], for which the “S-phase gammaH2AX median (Z-score)” value is 0.164.

Consider `CC(=O)[C@H]1CC[C@H]2[C@@H]3CC[C@H]4C[C@H](O)CC[C@]4(C)[C@H]3C(=O)C[C@]12C` [5alpha-Pregnan-3alpha-ol-11,20-dione], for which the “S-phase gammaH2AX median (Z-score)” value was -0.158.

For `CC(=O)c1c(O)c(C)c(O)c(Cc2c(O)c3c(c(C(=O)/C=C/c4ccccc4)c2O)OC(C)(C)C=C3)c1O` [Rottlerin], the “S-phase gammaH2AX median (Z-score)” value was 0.151.

In the case of `COc1ccccc1N1CCNCC1` [1-(2-Methoxyphenyl)piperazine hydrochloride], the “S-phase gammaH2AX median (Z-score)” value was 0.3.

With `O=C(O)c1cc[c]([Hg][Cl])cc1` [4-Chloromercuribenzoic acid], the “S-phase gammaH2AX median (Z-score)” value was determined as 0.0524.

As to `CC1=NN=C(c2ccc(N)cc2)c2cc3c(cc2C1)OCO3`, the “S-phase gammaH2AX median (Z-score)” value is -0.173.

`CCCC(C)(COC(N)=O)COC(=O)NC(C)C` (stereo not given) [Carisoprodol]: the “S-phase gammaH2AX median (Z-score)” value was -0.0854.

Consider `C[C@@]12C(=O)OC(=O)[C@]1(C)[C@H]1CC[C@@H]2O1` [Cantharidin], for which the “S-phase gammaH2AX median (Z-score)” value was 0.328.

`C/C(O)=C(\C#N)C(=O)Nc1cc(Br)ccc1Br`: the “S-phase gammaH2AX median (Z-score)” value came to 0.137.

As for `NC1CCc2cc(O)c(O)cc2C1` (stereo not given) [6,7-ADTN hydrobromide], the “S-phase gammaH2AX median (Z-score)” value is -0.0441.

In the case of `C[C@]12CCC(=O)C=C1CC[C@@H]1[C@@H]2CC[C@]2(C)C(=O)CC[C@@H]12` [4-Androstene-3,17-dione], the “S-phase gammaH2AX median (Z-score)” value is -0.0233.

Regarding `CC(O)C(C)OC(=O)[C@@H]1C[C@@H]2c3cccc4c3c(cn4C(C)C)C[C@H]2N(C)C1` (stereo not given in full) [LY-53,857 maleate], the “S-phase gammaH2AX median (Z-score)” value is -0.00473.

With `CCCC[N+]1(C)[C@@H]2C[C@@H](OC(=O)[C@H](CO)c3ccccc3)C[C@H]1[C@@H]1O[C@@H]12` (single isomer, unassigned; (-)) [(-)-Scopolamine,n-Butyl-, bromide], the “S-phase gammaH2AX median (Z-score)” value is -0.227.

Turning to `c1ccc2sc(C3(N4CCCCC4)CCCCC3)cc2c1` [BTCP hydrochloride], the “S-phase gammaH2AX median (Z-score)” value is -0.068.

For `N#C/C(=C\c1ccc(O)c(O)c1)C(N)=S` [Tyrphostin 47], the “S-phase gammaH2AX median (Z-score)” value was determined as 0.567.

On to `C[N+]1(C)C2CCC1CC(OC(=O)c1c[nH]c3ccccc13)C2` (stereo not given) [3-Tropanylindole-3-carboxylate methiodide], for which the “S-phase gammaH2AX median (Z-score)” value is -0.474.

Regarding `C[C@H]1OC[C@@H](C[N+](C)(C)C)O1` [(+)-cis-Dioxolane iodide], the “S-phase gammaH2AX median (Z-score)” value was determined as 0.00194.

Take `COc1ccc(OC)c(C(O)C(C)N)c1` (stereo not given) [Methoxamine hydrochloride]: the “S-phase gammaH2AX median (Z-score)” value came out at 0.00473.

On to `Clc1ccc(N2CCN(Cc3c[nH]c4ncccc34)CC2)cc1` [L-745,870 hydrochloride], for which the “S-phase gammaH2AX median (Z-score)” value was -0.0993.

Consider `CCn1cnc2c(Nc3cccc(Cl)c3)nc(N[C@@H]3CCCC[C@@H]3N)nc21`, for which the “S-phase gammaH2AX median (Z-score)” value was -0.196.

As to `NCCCNCCSP(=O)(O)O` [Amifostine], the “S-phase gammaH2AX median (Z-score)” value turned out to be 0.0621.

`O=S1(=O)N(CCN2CC=C(c3c[nH]c4cc(F)ccc34)CC2)c2cccc3c2N1CCC3`: the “S-phase gammaH2AX median (Z-score)” value is -0.183.

Take `N#CC(C#N)=Cc1ccc([N+](=O)[O-])c(O)c1` [Tyrphostin AG 126]: the “S-phase gammaH2AX median (Z-score)” value is -0.507.

As for `CCCCCCCCC(=O)NCc1ccc(O)c(OC)c1` [N-Vanillylnonanamide], the “S-phase gammaH2AX median (Z-score)” value is -1.05.

For `NCCc1c[nH]c2ccc(C(N)=O)cc12` [5-Carboxamidotryptamine maleate], the “S-phase gammaH2AX median (Z-score)” value is 0.0291.

For `Cc1cc2c(C(C)C)c(O)c(O)c(C=O)c2c(O)c1-c1c(C)cc2c(C(C)C)c(O)c(O)c(C=O)c2c1O` [Gossypol], the “S-phase gammaH2AX median (Z-score)” value was -0.0522.

With `O=c1[nH]c2ccccc2n1C1CCN(CCCC(c2ccc(F)cc2)c2ccc(F)cc2)CC1` [Pimozide], the “S-phase gammaH2AX median (Z-score)” value was -0.0899.

For `C=CCN1CC[C@]23CCCC[C@H]2[C@H]1Cc1ccc(O)cc13` [Levallorphan tartrate], the “S-phase gammaH2AX median (Z-score)” value was -0.102.

Regarding `CC(=O)NCCc1c[nH]c2ccccc12` [N-Acetyltryptamine], the “S-phase gammaH2AX median (Z-score)” value worked out at 0.0214.

Regarding `CC1=C2C[C@H]3[C@@H](CC=C4C[C@@H](O)CC[C@@]43C)[C@@H]2CC[C@]12O[C@@H]1C[C@H](C)CN[C@H]1[C@H]2C` [Cyclopamine], the “S-phase gammaH2AX median (Z-score)” value was -0.0708.

Consider `CC(N)c1cccc(Cl)c1Cl` (stereo not drawn) [(?)-2,3-Dichloro-alpha-methylbenzylamine hydrochloride], for which the “S-phase gammaH2AX median (Z-score)” value is -0.0283.

With `CCc1c(C(=O)OC)ncc2[nH]c3cc(OC)c(OC)cc3c12` [Methyl 6,7-dimethoxy-4-ethyl-beta-carboline-3-carboxylate], the “S-phase gammaH2AX median (Z-score)” value was -0.104.

As to `CN(C)C(=O)Oc1ccc[n+](C)c1` [Pyridostigmine bromide], the “S-phase gammaH2AX median (Z-score)” value was -0.0686.

For `CN(C)C(=O)Oc1cccc([N+](C)(C)C)c1` [Neostigmine bromide], the “S-phase gammaH2AX median (Z-score)” value is -0.818.

Turning to `CNC(=O)Oc1ccc2c(c1)[C@]1(C)CCN(C)[C@@H]1N2C` [(-)-Physostigmine], the “S-phase gammaH2AX median (Z-score)” value came out at 0.101.

`Cc1o[nH]c(=O)c1CC(N)C(=O)O` (stereo not given) [(?)-AMPA hydrobromide]: the “S-phase gammaH2AX median (Z-score)” value was determined as 0.132.

Turning to `CCN(CCCl)Cc1ccccc1Br` [DSP-4 hydrochloride], the “S-phase gammaH2AX median (Z-score)” value was -0.0233.

`CP(=O)(O)CCCN`: the “S-phase gammaH2AX median (Z-score)” value is 0.0291.

With `O=C(CCCN1CCC2(CC1)C(=O)N(CCc1ccc(N=C=S)cc1)CN2c1ccccc1)c1ccc(F)cc1` [N-(p-Isothiocyanatophenethyl)spiperone hydrochloride], the “S-phase gammaH2AX median (Z-score)” value is -0.194.

Turning to `CNC(=O)OCC[N+](C)(C)C` [Methylcarbamylcholine chloride], the “S-phase gammaH2AX median (Z-score)” value is -0.0639.

Take `CN1[C@@H]2CC[C@H]1C[C@@H](OC(=O)C(CO)c1ccccc1)C2` (stereo not given in full) [Atropine sulfate]: the “S-phase gammaH2AX median (Z-score)” value is -0.211.

Consider `c1ccc(CCCN2CCN(CCOC(c3ccccc3)c3ccccc3)CC2)cc1`, for which the “S-phase gammaH2AX median (Z-score)” value was -0.23.

Regarding `CC(C)C[C@H]1C(=O)N2CCC[C@H]2[C@]2(O)O[C@](NC(=O)[C@@H]3C=C4c5cccc6[nH]c(Br)c(c56)C[C@H]4N(C)C3)(C(C)C)C(=O)N12` [(+)-Bromocriptine methanesulfonate], the “S-phase gammaH2AX median (Z-score)” value is 0.00194.

For the compound `O=C(OC1CCN(CCCl)CC1)C(c1ccccc1)c1ccccc1` [4-Diphenylacetoxy-N-(2-chloroethyl)piperidine hydrochloride], the “S-phase gammaH2AX median (Z-score)” value was 0.532.

Turning to `C=CCN1CC[C@]23c4c5ccc(O)c4O[C@H]2/C(=N/N=C2\CC[C@@]4(O)[C@H]6Cc7ccc(O)c8c7[C@@]4(CCN6CC=C)[C@H]2O8)CC[C@@]3(O)[C@H]1C5` [Naloxonazine dihydrochloride], the “S-phase gammaH2AX median (Z-score)” value came to 0.166.

Turning to `O=C(Cc1ccc(Cl)c(Cl)c1)N1CCCCC1CN1CCCC1` (stereo not given), the “S-phase gammaH2AX median (Z-score)” value is -0.254.

As for `C#CCOC(=O)C1=CCCN(C)C1` [Arecaidine propargyl ester hydrobromide], the “S-phase gammaH2AX median (Z-score)” value is -0.0175.
